For four molecules, binding results are on record in patent US20230303682A1.

Amino acid sequences for entries named in this document (tags omitted). A change or cut given only in a name is not applied to a line headed by its entry.
UniProt Q99466: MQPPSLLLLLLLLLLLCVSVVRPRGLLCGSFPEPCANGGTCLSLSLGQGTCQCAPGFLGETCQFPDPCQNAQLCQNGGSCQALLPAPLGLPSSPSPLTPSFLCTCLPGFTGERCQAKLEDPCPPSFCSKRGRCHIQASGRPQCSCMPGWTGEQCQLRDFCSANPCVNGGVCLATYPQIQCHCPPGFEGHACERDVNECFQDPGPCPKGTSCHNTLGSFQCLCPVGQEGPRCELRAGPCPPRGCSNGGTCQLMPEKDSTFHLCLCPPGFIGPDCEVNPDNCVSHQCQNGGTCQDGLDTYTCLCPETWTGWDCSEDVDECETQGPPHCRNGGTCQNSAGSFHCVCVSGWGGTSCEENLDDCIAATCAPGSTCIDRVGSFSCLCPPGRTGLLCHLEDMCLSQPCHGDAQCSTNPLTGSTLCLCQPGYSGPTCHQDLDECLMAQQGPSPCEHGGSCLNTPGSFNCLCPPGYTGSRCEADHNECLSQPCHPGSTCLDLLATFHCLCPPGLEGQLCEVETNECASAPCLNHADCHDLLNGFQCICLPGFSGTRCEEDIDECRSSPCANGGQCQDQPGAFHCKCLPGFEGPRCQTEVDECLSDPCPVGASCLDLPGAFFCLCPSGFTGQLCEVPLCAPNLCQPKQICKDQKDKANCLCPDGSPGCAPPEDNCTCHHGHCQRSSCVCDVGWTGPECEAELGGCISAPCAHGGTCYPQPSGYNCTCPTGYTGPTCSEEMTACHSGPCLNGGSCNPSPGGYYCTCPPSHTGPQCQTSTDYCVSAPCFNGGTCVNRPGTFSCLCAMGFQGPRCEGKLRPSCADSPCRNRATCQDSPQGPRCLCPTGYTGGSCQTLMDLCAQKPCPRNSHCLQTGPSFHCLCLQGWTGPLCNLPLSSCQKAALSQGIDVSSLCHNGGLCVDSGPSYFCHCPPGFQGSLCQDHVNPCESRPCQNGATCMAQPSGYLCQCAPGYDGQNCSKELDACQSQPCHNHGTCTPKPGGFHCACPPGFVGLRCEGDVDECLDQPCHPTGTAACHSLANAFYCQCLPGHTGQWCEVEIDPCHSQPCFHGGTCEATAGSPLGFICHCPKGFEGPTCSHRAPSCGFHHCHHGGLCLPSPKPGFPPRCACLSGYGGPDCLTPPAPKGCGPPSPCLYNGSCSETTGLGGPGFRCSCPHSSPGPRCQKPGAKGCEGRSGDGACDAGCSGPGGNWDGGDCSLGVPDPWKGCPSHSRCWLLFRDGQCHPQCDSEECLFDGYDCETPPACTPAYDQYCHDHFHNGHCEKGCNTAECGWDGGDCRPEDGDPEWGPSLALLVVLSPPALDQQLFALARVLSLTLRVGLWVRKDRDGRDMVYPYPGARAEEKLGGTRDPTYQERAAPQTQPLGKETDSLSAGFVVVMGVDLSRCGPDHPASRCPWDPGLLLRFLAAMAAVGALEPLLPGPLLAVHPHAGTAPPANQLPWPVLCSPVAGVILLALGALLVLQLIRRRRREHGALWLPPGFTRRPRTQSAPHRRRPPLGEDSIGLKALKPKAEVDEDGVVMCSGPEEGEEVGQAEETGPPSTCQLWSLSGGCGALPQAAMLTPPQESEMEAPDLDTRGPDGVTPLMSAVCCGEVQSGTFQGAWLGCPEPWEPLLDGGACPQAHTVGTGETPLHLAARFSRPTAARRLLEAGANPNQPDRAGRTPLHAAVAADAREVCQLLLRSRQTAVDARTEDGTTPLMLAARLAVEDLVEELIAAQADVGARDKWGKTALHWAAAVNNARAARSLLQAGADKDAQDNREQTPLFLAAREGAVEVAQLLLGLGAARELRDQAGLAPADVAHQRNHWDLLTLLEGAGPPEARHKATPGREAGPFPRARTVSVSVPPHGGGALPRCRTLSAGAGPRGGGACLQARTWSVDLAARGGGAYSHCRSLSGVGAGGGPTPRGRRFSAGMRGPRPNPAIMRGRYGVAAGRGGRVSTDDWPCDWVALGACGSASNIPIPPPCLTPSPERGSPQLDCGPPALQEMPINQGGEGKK

B1: hu1B2.v101 (antibody, V domains shown)
VH: EVQLVESGGGLVQPGGSLKLSCAVSGFTFSDFYMEWVRQASGKGLEWVAAQRNKANDFSIVYSASVKDRFTISRDDSKSTLYLQMNSLKTEDTAVYYCSRDGGRWGLDAWGQGTLVTVSS
VL: DIQMTQSPSSVSASVGDRVTITCQTSEDIYSGLAWYQQKPGKSPKLLIYGASRLQDGVPSRFSGSGSGTDYTLTISSLQPEDFATYYCQQGFKYPLTFGGGTKVEIK
B2: hu1B2.v103 (antibody, V domains shown)
VH: EVQLVESGGGLVQPGGSLKLSCAVSGFTFSDFYMEWVRQASGKGLEWVAAQRNKANDFSIVYSASVKDRFTISRDDSKSTLYLQMNSLKTEDTAVYYCSRDGGKWGLDAWGQGTLVTVSS
VL: DIQMTQSPSSVSASVGDRVTITCQTSEDIYSGLAWYQQKPGKSPKLLIYGASRLQDGVPSRFSGSGSGTDYTLTISSLQPEDFATYYCQQGFKYPLTFGGGTKVEIK
B3: hu1B2.v104 (antibody, V domains shown)
VH: EVQLVESGGGLVQPGGSLKLSCAVSGFTFSDFYMEWVRQASGKGLEWVAAQRNKANDFSIVYSASVKDRFTISRDDSKSTLYLQMNSLKTEDTAVYYCSRDGGKLALDAWGQGTLVTVSS
VL: DIQMTQSPSSVSASVGDRVTITCQTSEDIYSGLAWYQQKPGKSPKLLIYGASRLQDGVPSRFSGSGSGTDYTLTISSLQPEDFATYYCQQGFKYPLTFGGGTKVEIK
B4: hu1B2.v102 (antibody, V domains shown)
VH: EVQLVESGGGLVQPGGSLKLSCAVSGFTFSDFYMEWVRQASGKGLEWVAAQRNKANDFSIVYSASVKDRFTISRDDSKSTLYLQMNSLKTEDTAVYYCSRDGGRLALDAWGQGTLVTVSS
VL: DIQMTQSPSSVSASVGDRVTITCQTSEDIYSGLAWYQQKPGKSPKLLIYGASRLQDGVPSRFSGSGSGTDYTLTISSLQPEDFATYYCQQGFKYPLTFGGGTKVEIK

These are yes or no findings as the source states them, for the method shown.

For this assay, the target named is human Notch4 (human) (UniProt Q99466). The assay is described as follows: SPR. Background: SPR reads the build-up and loss of mass on a sensor chip optically.
Consider B1, for which the binding result was “no binding”.
Consider B2, for which the binding result is recorded as “no binding”.
Under B3 stands “no binding”; under B4, “no binding”.
